Data from article PMC7874011.
No constants are given. Whether binding was seen depends on the method and setting. Binding seen in cells or lysates may run through a third protein. Some entries that bind do so weakly or less than the wild type.

By UniProt entry, the sequences of proteins in these tests, tags left out. Residues count along the entry.
UniProt P20029, residues 20-655: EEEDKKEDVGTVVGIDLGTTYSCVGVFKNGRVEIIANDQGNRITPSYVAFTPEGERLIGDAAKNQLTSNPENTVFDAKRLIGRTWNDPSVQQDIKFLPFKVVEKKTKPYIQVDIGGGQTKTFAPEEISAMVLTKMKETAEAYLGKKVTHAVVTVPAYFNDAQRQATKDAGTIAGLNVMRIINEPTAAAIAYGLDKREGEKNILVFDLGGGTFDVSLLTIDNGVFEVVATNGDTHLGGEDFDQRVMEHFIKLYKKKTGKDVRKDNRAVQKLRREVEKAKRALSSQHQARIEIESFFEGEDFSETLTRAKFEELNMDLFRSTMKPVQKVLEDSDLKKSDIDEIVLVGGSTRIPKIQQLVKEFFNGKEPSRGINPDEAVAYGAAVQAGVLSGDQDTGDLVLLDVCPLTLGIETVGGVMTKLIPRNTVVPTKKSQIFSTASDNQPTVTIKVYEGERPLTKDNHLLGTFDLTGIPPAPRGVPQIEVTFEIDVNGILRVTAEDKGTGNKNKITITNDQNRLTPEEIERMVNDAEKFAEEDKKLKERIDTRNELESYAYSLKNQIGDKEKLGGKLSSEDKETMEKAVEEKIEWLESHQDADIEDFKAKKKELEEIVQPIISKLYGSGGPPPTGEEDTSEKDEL
UniProt P06761, residues 19-654: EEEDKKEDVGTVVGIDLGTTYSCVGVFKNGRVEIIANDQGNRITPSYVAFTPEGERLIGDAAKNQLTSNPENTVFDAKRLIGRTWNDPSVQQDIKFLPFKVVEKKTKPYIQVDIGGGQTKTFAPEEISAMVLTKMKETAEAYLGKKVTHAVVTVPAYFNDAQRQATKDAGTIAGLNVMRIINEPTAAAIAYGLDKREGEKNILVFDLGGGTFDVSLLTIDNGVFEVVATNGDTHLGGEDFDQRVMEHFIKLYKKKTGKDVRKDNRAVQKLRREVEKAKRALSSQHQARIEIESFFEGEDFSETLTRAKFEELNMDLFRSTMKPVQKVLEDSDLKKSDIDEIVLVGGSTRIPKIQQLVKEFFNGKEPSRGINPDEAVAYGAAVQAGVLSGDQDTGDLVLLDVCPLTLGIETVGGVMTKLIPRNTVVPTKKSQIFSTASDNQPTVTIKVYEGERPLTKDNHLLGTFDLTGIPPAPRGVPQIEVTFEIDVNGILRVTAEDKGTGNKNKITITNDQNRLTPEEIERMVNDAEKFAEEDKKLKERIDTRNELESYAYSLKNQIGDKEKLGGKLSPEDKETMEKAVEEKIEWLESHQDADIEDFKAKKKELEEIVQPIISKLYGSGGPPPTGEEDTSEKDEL

Key:
GST-SOCS3 fusion protein = GST-SOCS3 fusion protein (UniProt O35718); test: pull-down; in vitro GST pull-down: GRP78 expressed in HEK293 cells retained by GST or GST-SOCS3 fusion protein; immunoblot after binding reactions; only the target purified
Flag-GRP78 = Flag-GRP78 (UniProt P20029); test: co-IP; HEK293T (legend: HEK293) cells transfected with Myc-SOCS3 and Flag-GRP78; lysates immunoprecipitated with anti-Flag antibody; immunoblot with anti-Flag and anti-Myc
[1] = target: Glucose regulatory protein 78 (GRP78), endogenous in neonatal rat cardiomyocytes (rat (endogenous in neonatal rat cardiomyocytes)) (UniProt P06761); test: co-IP; primary cardiomyocyte (NRCM) lysates immunoprecipitated with anti-GRP78 antibody or IgG control; immunoblot for SOCS3 and GRP78

Molecule: GRP78 expressed in HEK293 cells (GST pull-down) (from UniProt P20029 20-655)
- binding (GST-SOCS3 fusion protein): binds

Molecule: Myc-SOCS3 (from UniProt O35718 1-225)
- binding (Flag-GRP78): binds

B1: Suppressor of cytokine signaling-3 (SOCS3), endogenous in neonatal rat cardiomyocytes (protein, UniProt O88583 1-225)
chain: MVTHSKFPAAGMSRPLDTSLRLKTFSSKSEYQLVVNAVRKLQESGFYWSAVTGGEANLLLSAEPAGTFLIRDSSDQRHFFTLSVETQSGTKNLRIQCEGGSFSLQSDPRSTQPVPRFDCVLKLVHHYMPPPGAPSFSLPPTEPSFEVQEQPPAQALPGGTPKRAYYIYSGGEKIPLVLSRPLSSNVATLQHLCRKTVNGHLDSYEKVTQLPGPIREFLDQYDAPL
- binding [1]: binds
